# Assay results published in PubChem BioAssay AID595 (National Center for Advancing Translational Sciences (NCATS), 2007).
# Several values for one entry are separate records, joined by “and”; a condition that tells them apart may be missing. Equal entries are not always repeated. In all, about 71,000 compounds went through this assay and about 310 (0.44%) were called active. Inconclusive results, whose numbers are uncertain, are shown with a selection of clear calls. Calls come from the whole dose curve; as a rule, active = well fitted curve in either direction with a large enough effect; inconclusive = small, poorly fitted or top-dose-only effect, or another doubt; inactive = flat fitted curve, though single readings scatter. Potencies beside an inconclusive call are fits to weak or partial responses and may not hold up.
# Tested on: Hsp90 C-terminal peptide / TPR2A (Hop) interaction, human
# Experiment: qHTS Assay for Disrupters of an Hsp90 Co-Chaperone Interaction
# Settings: AlphaScreen TPR2A-His6 binding biotin-Hsp90 C-terminal peptide; activity change, negative = inhibition: at 57 µM (top of the series) unless noted
# % is set by controls: 0 for no effect and ±100 for the full control effect; potency is the fitted concentration of half-maximal effect.
Structure (SMILES),"activity change, negative = inhibition",Potency
O=C(c1csnn1)N1CCC2(CCCN(Cc3cc(C(F)(F)F)cc(C(F)(F)F)c3)C2)CC1,inactive,–
Cc1cc(Oc2ccccc2)nc(-c2ccccc2O)n1,–,"inconclusive: 25.1 µM [activator, partial curve]"
CCOC(=O)[C@H](CCc1ccccc1)N[C@@H](C)C(=O)N1[C@H](C(=O)O)C[C@H]2CCC[C@@H]21,inactive,–
CCc1ccc(CNc2ccc(N3CCN(C(C)=O)CC3)cc2)cc1,inconclusive: -21%,–
N#Cc1nc(-c2ccco2)oc1N1CCN(c2ccccc2)CC1,–,"inconclusive: 25.1 µM [inhibitor, single point]"
C[C@H](Cc1ccc(O)c(O)c1)[C@@H](C)Cc1ccc(O)c(O)c1,–,"inactive and inconclusive: 15.8 µM [inhibitor, partial curve]"
CCc1ccc(OCC(=O)N(C)CCC#N)c(Br)c1,inconclusive: 56.7%,–
COc1ccc(-c2coc3ccc(O[C@@H]4O[C@@H](COC(C)=O)[C@@H](OC(C)=O)[C@@H](OC(C)=O)[C@H]4OC(C)=O)c(OC(C)=O)c3c2=O)cc1,inactive,–
Cc1ccc(S(=O)(=O)NC(=O)c2cc(C)n(CCCn3ccnc3)c2C)cc1,–,active: 3.98 µM
CC1=CC(C)(C)N2C(=O)C3(N=C(N)NC(Nc4ccccc4)=N3)c3cc(C)cc1c32 (stereo not drawn),inactive,–
CCN(CC)CCN=CC1=C(O)CNC1=O,inconclusive: 41.1%,–
Cn1cc(Cl)c(C(=O)N2CCN(c3ncccn3)CC2)n1,inconclusive: 51.2%,–
COc1cccc(CN2CCCC(C(=O)N3CCCCC3)C2)c1OC (stereo not drawn),inconclusive: 29.9%,–
CC(C)(C)OC(=O)N1CC=C2C(C#N)=C(N)C(C#N)(C#N)C(c3cccs3)C2C1 (stereo not drawn),inactive,–
O=C(c1ccc(Cn2c(=O)[nH]c3ccccc3c2=O)cc1)N1CCN(c2ccccc2)CC1,inconclusive: 22.1%,–
O=C(c1ccc2ccccc2c1)N1CCN(c2ccc(O)cc2)CC1,inconclusive: 9.87%,–
Cc1cc([N+](=O)[O-])c(C)c(Br)c1C,inactive: 2.56% [at 11 µM],–
Cn1nnc2cc(C(=O)Nc3cccnc3)ccc21,inconclusive: 40.5%,–
COc1ccc(C2CC(=O)c3cnc(NC(=O)c4ccccc4OC)nc3C2)c(OC)c1 (stereo not drawn),inactive,–
COC(=O)/C=c1/sc2nc3ccccc3n2c1=O,inactive,–
COC(=O)c1ccc(CSc2nc3c(c(=O)n2-c2ccc(F)cc2)SCC3)o1,inactive,–

Structure (SMILES),"activity change, negative = inhibition",Potency
CC(=O)Nc1cc(NC(C)=O)cc(C(=O)NC(C)(C)C)c1,inconclusive: 41.4%,–
O=c1[nH]c(CSc2ncc(-c3ccc(F)cc3)n2Cc2ccco2)nc2ccccc12,–,"inconclusive: 31.6 µM [inhibitor, partial curve]"
COc1ccc(OCCC(=O)N2CCCCC2)cc1,inconclusive: 39%,–
c1ccc2cc(C3=NCCN3)ncc2c1,–,"inconclusive: 39.8 µM [inhibitor, single point]"
CC(C)c1ccc(-c2nnn(Cc3nc4ccccc4s3)n2)cc1,–,"inconclusive: 31.6 µM [activator, single point]"
O=C(O)C1=CC(=C(c2ccc(O)c(C(=O)O)c2)c2ccc(O)c(C(=O)O)c2)C=CC1=O,–,"inconclusive: 31.6 µM [inhibitor, partial curve]"
CCCCCCSC1=C(C#N)C(c2ccc(C)o2)CC(=O)N1 (stereo not drawn),inactive,–
O=c1cc(-c2ccccc2)oc2ccccc12,inactive,–
CCCn1c(C)nc2c(NCC(C)(C)CN(C)C)nc(C)nc21,inactive,–
O=C1c2ccccc2C(Nc2ccc3c(c2)OCO3)N1Cc1ccco1 (stereo not drawn),–,"inconclusive: 15.8 µM [inhibitor, partial curve]"
COc1ccc(Nc2nc(-c3sc(N)nc3C)cs2)cc1,–,"inconclusive: 25.1 µM [inhibitor, partial curve]"
COC(=O)c1ccc(NC(=O)C2CCCN2S(=O)(=O)c2ccc(C)cc2)cc1 (stereo not drawn),inactive,–
COc1ccc(C(=O)N2CCC3(CC2)CCN(c2ccccn2)CC3)cc1,inactive,–
COc1ccc2c(c1)c1nnc(SC)nc1n2C,inactive,–
COc1ccc(Cl)cc1C(=O)NCCc1ccc(S(=O)(=O)NC(=O)NC2CCCCC2)cc1,inactive,–
CCN(CC)S(=O)(=O)c1cccc(-c2nnc(SCCOc3ccccc3C)o2)c1,–,"inconclusive: 25.1 µM [activator, single point]"
O=C1C=C(NCCc2cc(Br)c(O)c(Br)c2)C(=O)c2ncccc21,–,"inconclusive: 3.16 µM [inhibitor, partial curve]"
Cn1cnc(S(=O)(=O)Nc2ccc(C(F)(F)F)cc2)c1,inconclusive: 38.7%,–
Cc1csc(C2=C(O)CN(CCc3ccccc3)C2=N)n1,inconclusive: 36.6%,–
c1cncc(CNc2cc(-c3ccoc3)ncn2)c1,–,"inconclusive: 25.1 µM [inhibitor, partial curve]"
Cc1n[nH]c(=S)n(/N=C/c2ccccn2)c1=O,–,"inconclusive: 31.6 µM [inhibitor, single point]"

Structure (SMILES),"activity change, negative = inhibition",Potency
CCOC(=O)c1ccc(NC(=O)Cn2nnc(-c3ccccc3C)n2)cc1,inconclusive: 60%,–
Cc1onc(-c2ccccc2)c1C(=O)Nc1ccncc1,inconclusive: 43.7%,–
CCc1nnc(NC(=O)C2CCN(c3nccc(C)n3)CC2)s1,inconclusive: 40.4%,–
COc1ccc(Nc2nc(N)nc(CN3CCc4ccccc4C3)n2)cc1,–,"inconclusive: 39.8 µM [inhibitor, single point]"
O=C(NCCCN1CCCC1=O)c1nnc(Cc2c(F)cccc2Cl)o1,inconclusive: 50.4%,–
COCCn1c(=O)c(-c2ccc(OC)cc2)nc2cnc(Oc3ccccc3)nc21,–,"inconclusive: 25.1 µM [activator, single point]"
O=C1COc2ccc(C(=O)COC(=O)C3CCN(S(=O)(=O)c4cccs4)CC3)cc2N1,inactive,–
COc1nc(-c2ccccc2)ccc1-c1noc(COc2ccccc2)n1,–,"inconclusive: 31.6 µM [activator, single point]"
COc1ccccc1CNc1ncncc1-c1ccoc1,–,"inconclusive: 31.6 µM [inhibitor, partial curve]"
COc1ccc(Cl)cc1NC(=O)CN(C1CCCCC1)S(C)(=O)=O,inconclusive: 41.5%,–
Cc1nnc(SCC(=O)c2cc(C)n(-c3c(C)n(C)n(-c4ccccc4)c3=O)c2C)s1,inconclusive: 40.9%,–
COc1ccccc1CNc1ccnc(-c2ccoc2)n1,–,"inconclusive: 25.1 µM [inhibitor, partial curve]"
Cc1ccc(C)c(C(=O)CSc2n[nH]c(C)n2)c1,–,"inconclusive: 6.31 µM [inhibitor, single point]"
COc1ccc(N2CCN(C(c3cc(OC)ccc3OC)c3nnnn3Cc3ccco3)CC2)cc1 (stereo not drawn),–,"inconclusive: 12.6 µM [inhibitor, partial curve]"
O=C(NCCOC(=O)c1ccc(Cl)c(S(=O)(=O)N2CCCCC2)c1)c1ccncc1,inactive,–
CCCCN1C(=O)/C(=C2\SC(N3CCCCC3)=NC2=O)c2ccccc21,–,"inconclusive: 25.1 µM [inhibitor, single point]"
COC(=O)c1c(C)oc2ccc(OC(=O)c3cccs3)cc12,–,"inconclusive: 25.1 µM [activator, single point]"
O=C(c1cc(O)c(O)c([N+](=O)[O-])c1)c1ccccc1F,–,"inconclusive: 6.31 µM [inhibitor, partial curve]"
ICCc1ccccc1,inconclusive: 52.4%,–
CCOc1ccccc1Nc1nc(N)nc(CN(C)C2CCCCC2)n1,–,"inconclusive: 31.6 µM [inhibitor, single point]"
COc1cccc(CNC(=O)Cn2cc3c(n2)CCCC3)c1,inactive,–

Structure (SMILES),"activity change, negative = inhibition",Potency
Cc1cc(NCCCN2CCOCC2)n2nc(C)c(-c3ccc(F)cc3)c2n1,inconclusive: 50.1%,–
COc1ccc(S(=O)(=O)NCCSCc2ccco2)cc1,inconclusive: 32.6%,–
CCOC(=O)c1[nH]cnc1C(=O)NC1CCCCC1,inactive,–
Cc1ccc(NC(=O)N2CCC(C(=O)NCc3ccccc3)CC2)cc1,inconclusive: 47.3%,–
COc1ccc(CCNC(=O)Cn2c(-c3nonc3N)nc3ccccc32)cc1OC,inactive,–
O=C(Nc1ccc2oc(-c3ccccc3)nc2c1)c1ccc2c(c1)OCCO2,inconclusive: 54.5%,–
CN(C)c1ncc2nc(CCc3ccccc3)c(=O)n(-c3ccccc3)c2n1,–,active: 20 µM [activator]
Clc1ccc(OCc2nc(-c3ccccn3)n[nH]2)cc1,–,active: 15.8 µM
O=C(C1CCCO1)N1CCN(S(=O)(=O)c2ccccc2)CC1 (stereo not drawn),inconclusive: 40.4%,–
COc1cccc(C=Nc2ccc3c(c2)OCCO3)c1O,inactive,–
O=C(c1ccco1)N1CCCC(c2ccccc2)C1 (stereo not drawn),inactive,–
Cc1cnc(NC(=O)c2ccc(-c3nc4ccccc4s3)o2)s1,inactive,–
N#Cc1c2c(c(NCc3ccco3)n3c1nc1ccccc13)CCC2,inconclusive: 48%,–
Cc1[nH]n(C(N)=S)c(=O)c1C(c1ccccc1)C(C#N)C#N (stereo not drawn),inconclusive: 8.25%,–
COc1ccccc1N1CCN(c2nc3ccccc3nc2C(C#N)C(=O)OC(C)C)CC1 (stereo not drawn),–,"inconclusive: 15.8 µM [inhibitor, partial curve]"
CN(C)c1oc(-c2ccccc2F)nc1C#N,inactive: -5.94% [at 2.3 µM],–
Cc1ccccc1CS(=O)(=O)Cc1ccc(C(=O)N2CCOCC2)o1,inconclusive: 33%,–
CCOC(=O)c1oc2cccc(O)c2c1CN1CCOCC1,inconclusive: 36.7%,–
CCNc1nc(NC(C)C)nc(N(C#N)Cc2ccccc2)n1,inactive,–
Cc1ccc(N(CC(=O)NC2CCCCCC2)S(=O)(=O)c2c(C)nn(C)c2C)cc1,inactive,–
